The list shows a part of the results.
compound: c1cn2cc(-c3ccc4cn[nH]c4c3)nc(Nc3ccc(N4CCOCC4)cc3)c2n1 [entospletinib]; test: log2 fold change, soluble protein after heating vs DMSO (PISA); higher = thermal stabilisation; K562 cells, 10 uM, 30 min; active = over 0.2 and 3.5 SD of the protein, either way, in both replicates (recomputed)
Outline: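 K562 cells (2×10^6 cells/mL) were treated with 10 μM compound for 30 min, and aliquots were heated for 3 min over 48°C-58°C. Pooled aliquots were extracted in PBS with 0.5% NP-40 at 4°C, and the supernatant after 21,000xg for 90 min was measured by TMTpro 16plex LC-MS/MS with channel sums equalised. Reported thermal stability, relative to control samples and from duplicates, is a log2 fold change.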

Protein sequences, listed by entry. Tags and fused reporters are not part of them. Lines headed by an entry give the natural chain unless they say otherwise; changes in a name come on top.
UniProt P00488: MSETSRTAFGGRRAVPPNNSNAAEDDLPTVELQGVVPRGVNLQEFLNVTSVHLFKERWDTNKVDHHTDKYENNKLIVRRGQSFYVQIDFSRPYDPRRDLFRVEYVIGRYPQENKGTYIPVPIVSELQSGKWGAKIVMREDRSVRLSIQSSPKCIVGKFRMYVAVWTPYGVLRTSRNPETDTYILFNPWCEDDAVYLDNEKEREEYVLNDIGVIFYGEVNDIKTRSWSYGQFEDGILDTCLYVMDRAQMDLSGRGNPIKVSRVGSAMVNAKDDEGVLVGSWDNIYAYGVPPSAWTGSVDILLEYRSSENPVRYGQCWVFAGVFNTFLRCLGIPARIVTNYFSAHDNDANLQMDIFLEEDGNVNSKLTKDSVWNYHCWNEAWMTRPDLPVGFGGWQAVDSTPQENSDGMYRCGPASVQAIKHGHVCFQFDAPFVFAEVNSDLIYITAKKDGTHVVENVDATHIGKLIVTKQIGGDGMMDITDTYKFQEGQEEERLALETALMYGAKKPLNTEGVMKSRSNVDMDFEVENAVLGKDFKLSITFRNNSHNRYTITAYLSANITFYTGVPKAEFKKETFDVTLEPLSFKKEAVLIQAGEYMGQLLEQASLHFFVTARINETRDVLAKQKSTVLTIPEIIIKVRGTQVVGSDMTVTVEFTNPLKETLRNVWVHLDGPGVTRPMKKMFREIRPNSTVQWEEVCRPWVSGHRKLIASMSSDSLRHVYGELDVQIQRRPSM
UniProt Q9H6S3: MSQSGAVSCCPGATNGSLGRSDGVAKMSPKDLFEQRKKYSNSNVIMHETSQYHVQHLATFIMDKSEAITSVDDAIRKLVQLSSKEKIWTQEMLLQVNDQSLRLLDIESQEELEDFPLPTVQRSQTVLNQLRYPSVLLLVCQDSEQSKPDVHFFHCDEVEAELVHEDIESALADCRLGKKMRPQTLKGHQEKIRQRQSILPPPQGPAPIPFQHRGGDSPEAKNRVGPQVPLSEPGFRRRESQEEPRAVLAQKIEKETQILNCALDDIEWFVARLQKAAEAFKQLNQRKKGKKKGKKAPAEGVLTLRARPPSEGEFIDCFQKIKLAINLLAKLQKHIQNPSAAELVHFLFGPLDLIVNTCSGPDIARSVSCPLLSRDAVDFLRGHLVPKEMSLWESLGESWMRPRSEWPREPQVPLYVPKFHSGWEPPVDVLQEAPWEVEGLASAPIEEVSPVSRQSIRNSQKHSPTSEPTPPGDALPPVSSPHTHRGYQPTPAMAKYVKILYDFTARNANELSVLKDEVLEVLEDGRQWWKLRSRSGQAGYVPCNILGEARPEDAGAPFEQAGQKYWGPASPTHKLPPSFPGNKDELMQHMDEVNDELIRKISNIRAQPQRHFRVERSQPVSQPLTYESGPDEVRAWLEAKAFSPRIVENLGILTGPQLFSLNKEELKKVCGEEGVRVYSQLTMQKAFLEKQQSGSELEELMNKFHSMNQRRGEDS
UniProt Q9NZB2: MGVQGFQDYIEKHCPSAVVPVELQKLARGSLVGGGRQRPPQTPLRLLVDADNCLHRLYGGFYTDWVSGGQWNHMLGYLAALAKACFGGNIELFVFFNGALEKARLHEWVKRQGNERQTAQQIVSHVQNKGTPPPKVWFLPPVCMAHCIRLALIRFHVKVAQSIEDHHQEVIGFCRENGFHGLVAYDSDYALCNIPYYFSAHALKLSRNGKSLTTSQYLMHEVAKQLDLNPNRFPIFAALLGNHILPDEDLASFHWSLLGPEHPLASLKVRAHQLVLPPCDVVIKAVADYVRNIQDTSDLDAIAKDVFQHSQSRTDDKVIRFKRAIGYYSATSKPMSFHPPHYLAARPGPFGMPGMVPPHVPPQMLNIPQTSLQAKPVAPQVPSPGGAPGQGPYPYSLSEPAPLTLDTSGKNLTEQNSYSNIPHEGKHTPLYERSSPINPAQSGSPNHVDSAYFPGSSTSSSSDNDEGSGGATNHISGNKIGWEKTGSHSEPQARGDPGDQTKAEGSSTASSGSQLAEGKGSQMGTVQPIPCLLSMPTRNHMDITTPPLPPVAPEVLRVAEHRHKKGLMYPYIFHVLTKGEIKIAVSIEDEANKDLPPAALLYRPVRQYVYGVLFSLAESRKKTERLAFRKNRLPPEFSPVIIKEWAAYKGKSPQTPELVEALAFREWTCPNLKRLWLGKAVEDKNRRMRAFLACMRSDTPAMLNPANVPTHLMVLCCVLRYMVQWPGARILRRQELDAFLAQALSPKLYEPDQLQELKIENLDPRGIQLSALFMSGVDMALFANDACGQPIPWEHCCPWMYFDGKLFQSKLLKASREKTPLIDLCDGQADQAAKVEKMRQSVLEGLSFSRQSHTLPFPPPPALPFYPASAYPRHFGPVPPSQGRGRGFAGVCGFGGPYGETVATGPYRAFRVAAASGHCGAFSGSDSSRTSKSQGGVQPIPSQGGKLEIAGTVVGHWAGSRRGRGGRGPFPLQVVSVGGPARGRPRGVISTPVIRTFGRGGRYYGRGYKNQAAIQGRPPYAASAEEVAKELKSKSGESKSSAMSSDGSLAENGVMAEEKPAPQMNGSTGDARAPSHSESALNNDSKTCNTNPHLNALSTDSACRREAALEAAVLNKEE
UniProt Q9UKR5: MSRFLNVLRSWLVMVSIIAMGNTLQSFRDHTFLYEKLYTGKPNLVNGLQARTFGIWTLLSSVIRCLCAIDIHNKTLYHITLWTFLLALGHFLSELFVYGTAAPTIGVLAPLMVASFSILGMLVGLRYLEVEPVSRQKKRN
UniProt Q96DZ1: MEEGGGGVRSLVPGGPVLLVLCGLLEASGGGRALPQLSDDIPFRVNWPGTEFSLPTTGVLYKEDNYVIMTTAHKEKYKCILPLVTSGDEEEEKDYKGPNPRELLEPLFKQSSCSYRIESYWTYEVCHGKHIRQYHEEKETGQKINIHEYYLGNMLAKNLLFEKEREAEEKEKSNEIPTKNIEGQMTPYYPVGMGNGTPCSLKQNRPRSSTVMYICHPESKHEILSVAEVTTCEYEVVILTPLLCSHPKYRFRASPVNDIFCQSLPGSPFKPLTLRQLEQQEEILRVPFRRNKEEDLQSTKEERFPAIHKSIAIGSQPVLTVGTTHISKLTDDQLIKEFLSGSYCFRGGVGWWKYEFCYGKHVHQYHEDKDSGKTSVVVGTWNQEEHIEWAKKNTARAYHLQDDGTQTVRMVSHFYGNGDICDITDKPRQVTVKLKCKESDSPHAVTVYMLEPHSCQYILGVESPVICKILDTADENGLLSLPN
UniProt P16930: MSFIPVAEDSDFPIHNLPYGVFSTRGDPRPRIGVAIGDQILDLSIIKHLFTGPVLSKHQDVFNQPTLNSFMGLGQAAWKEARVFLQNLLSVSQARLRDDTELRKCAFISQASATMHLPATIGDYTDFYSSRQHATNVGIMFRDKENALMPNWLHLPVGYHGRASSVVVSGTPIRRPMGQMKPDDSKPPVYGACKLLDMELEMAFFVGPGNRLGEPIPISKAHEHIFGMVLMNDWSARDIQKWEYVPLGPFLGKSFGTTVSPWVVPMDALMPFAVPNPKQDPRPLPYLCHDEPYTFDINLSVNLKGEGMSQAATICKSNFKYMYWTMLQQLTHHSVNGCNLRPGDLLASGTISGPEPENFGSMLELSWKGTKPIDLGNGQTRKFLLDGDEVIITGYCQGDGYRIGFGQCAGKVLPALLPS
UniProt Q6P2I3: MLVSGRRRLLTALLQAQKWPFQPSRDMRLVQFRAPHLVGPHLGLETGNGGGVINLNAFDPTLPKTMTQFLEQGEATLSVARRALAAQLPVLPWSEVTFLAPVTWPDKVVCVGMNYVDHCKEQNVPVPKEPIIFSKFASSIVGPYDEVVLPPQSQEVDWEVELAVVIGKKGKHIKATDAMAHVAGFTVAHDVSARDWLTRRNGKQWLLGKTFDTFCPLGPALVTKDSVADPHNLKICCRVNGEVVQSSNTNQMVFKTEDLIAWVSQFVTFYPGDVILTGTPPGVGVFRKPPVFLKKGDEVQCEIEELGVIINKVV
UniProt Q93063: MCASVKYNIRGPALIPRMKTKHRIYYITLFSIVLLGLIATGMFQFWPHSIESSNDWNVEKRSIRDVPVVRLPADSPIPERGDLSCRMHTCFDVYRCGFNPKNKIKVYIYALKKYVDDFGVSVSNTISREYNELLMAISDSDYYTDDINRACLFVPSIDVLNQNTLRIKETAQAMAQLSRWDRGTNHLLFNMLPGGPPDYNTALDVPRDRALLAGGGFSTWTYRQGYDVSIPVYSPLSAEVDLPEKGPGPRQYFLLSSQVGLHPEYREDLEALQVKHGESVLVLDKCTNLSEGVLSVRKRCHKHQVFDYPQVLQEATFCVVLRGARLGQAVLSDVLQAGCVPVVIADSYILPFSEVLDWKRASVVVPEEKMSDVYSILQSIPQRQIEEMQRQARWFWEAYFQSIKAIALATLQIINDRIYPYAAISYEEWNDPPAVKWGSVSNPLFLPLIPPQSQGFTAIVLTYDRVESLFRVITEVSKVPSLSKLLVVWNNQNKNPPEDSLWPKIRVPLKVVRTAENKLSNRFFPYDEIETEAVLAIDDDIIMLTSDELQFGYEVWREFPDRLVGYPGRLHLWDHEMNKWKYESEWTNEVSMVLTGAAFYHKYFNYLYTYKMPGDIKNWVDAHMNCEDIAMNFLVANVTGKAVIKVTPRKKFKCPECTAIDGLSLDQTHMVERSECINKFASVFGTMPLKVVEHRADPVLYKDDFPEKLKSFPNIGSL
UniProt P10768: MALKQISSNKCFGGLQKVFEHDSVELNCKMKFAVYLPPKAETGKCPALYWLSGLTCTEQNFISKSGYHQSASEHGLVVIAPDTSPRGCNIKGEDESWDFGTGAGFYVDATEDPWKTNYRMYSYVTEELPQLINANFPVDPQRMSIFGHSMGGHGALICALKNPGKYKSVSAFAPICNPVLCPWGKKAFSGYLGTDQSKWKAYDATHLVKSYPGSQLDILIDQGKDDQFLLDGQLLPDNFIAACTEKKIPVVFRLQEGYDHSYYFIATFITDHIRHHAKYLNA
UniProt Q9Y624, whole entry, looked up, stated change not applied: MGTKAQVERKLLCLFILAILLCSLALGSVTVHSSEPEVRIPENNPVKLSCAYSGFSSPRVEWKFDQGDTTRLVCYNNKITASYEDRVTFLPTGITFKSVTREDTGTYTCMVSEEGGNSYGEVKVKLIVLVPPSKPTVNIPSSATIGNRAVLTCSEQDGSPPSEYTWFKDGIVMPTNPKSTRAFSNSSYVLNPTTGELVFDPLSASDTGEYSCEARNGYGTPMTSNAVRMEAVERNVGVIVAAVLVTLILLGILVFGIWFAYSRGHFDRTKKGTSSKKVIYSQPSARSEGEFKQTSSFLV
UniProt Q92889: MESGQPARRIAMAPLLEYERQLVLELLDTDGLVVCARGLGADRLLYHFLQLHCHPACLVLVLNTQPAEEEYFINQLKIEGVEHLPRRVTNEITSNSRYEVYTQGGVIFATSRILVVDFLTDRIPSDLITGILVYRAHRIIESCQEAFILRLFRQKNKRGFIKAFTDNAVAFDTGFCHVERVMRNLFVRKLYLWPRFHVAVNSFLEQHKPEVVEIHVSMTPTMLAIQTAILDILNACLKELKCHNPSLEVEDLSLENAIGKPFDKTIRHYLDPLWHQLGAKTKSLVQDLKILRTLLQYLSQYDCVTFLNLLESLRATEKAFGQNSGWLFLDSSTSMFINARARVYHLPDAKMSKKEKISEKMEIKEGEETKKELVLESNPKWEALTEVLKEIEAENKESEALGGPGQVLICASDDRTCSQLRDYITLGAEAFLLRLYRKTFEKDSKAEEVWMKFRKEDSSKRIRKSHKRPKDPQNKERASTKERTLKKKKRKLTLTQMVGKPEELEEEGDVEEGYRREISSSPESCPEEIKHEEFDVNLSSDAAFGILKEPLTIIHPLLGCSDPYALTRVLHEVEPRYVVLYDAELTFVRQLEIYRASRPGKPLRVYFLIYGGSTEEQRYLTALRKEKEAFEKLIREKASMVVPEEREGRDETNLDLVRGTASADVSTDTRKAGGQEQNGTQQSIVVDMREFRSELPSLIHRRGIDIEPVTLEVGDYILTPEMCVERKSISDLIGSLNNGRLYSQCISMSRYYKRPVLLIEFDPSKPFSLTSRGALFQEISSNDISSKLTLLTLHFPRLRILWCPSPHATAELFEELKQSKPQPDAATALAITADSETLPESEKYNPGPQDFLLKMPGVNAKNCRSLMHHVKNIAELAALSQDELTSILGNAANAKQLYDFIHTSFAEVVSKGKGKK
UniProt O75063: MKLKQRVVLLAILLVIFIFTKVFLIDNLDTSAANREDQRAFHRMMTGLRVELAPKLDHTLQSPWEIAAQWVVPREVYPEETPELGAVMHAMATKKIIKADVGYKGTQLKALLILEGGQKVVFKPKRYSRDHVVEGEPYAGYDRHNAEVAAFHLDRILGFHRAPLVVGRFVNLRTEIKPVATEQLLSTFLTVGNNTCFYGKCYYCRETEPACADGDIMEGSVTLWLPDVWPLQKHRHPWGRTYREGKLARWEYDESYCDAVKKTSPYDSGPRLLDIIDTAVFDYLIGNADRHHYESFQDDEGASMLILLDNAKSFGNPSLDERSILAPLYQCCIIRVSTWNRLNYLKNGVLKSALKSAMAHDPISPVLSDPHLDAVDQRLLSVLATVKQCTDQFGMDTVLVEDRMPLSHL

log2 fold change, inactive:
F13A1 (UniProt P00488) -0.01, EPS8L2 isoform 3 (UniProt Q9H6S3) 0.034, ETF1 isoform 2 (UniProt P62495) 0.14, FAM120A isoform 6 (UniProt Q9NZB2) 0.084, EPHA6 (UniProt Q9UF33) 0.745, ERG28 (UniProt Q9UKR5) -0.019, EPHX1 (UniProt P07099) 0.022, ERLEC1 (UniProt Q96DZ1) -0.009, FAM172A (UniProt Q8WUF8) -0.165, EXTL3 (UniProt O43909) 0.161, EPS15L1 isoform 2 (UniProt Q9UBC2) -0.011, ERO1A (UniProt Q96HE7) 0.006, ERP44 (UniProt Q9BS26) 0.01, FAH (UniProt P16930) -0.033, EPB41L3 (UniProt Q9Y2J2) 0.035, ERP29 (UniProt P30040) 0.022, FAHD2B (UniProt Q6P2I3) 0.003, EZR (UniProt P15311) -0.011, FAM162A (UniProt Q96A26) 0.027, FAHD2A (UniProt Q96GK7) 0.026, ERMAP (UniProt Q96PL5) -0.036, EPN1 (UniProt Q9Y6I3) -0.003, EXT2 isoform 3 (UniProt Q93063) -0.037, ESD (UniProt P10768) -0.007, F11R (UniProt Q9Y624) 0.034, FAH isoform 2 (UniProt P16930) -0.209, EXOSC9 isoform 2 (UniProt Q06265) 0.028, EWSR1 (UniProt H7BY36) 0.038, EXOSC5 (UniProt Q9NQT4) -0.03, ERCC4 (UniProt Q92889) -0.02, FAM20B (UniProt O75063) -0.062
